{
  "source": "patent US20200224136A1",
  "about": "“INTESTINE-CHIP: DIFFERENTIAL GENE EXPRESSION MODEL” (priority 2019, published 2020)",
  "origin": "cited, not measured here",
  "test_system": "STC-1 Cells (Intestinal Neuroendocrine Tumor Cells)",
  "conditions": "30 uM, 1 hour; GLP-1 (7-36) amide Enzyme Immunoassay Kit (Wako); cited from earlier work",
  "note": "At least one compound was matched to its structure with a doubt left.",
  "data": [
    {"smiles": "C[C@H](CCC(=O)O)[C@H]1CC[C@H]2[C@@H]3CC[C@@H]4C[C@H](O)CC[C@]4(C)[C@H]3CC[C@]12C", "note": "[Lithocholic Acid]", "values": [
      {"measurement": "GLP-1 Concentration (fold increase)", "value": "4-fold increase"}
    ]}
  ]
}
